In this test the target is 4D12G1 mAb. In words: competitive ELISA: 4D12G1 pre-incubated with rising soluble rhAMHR2-ED, then added to plates coated with rhAMHR2-ED; soluble rhAMHR2-ED is the varied competing protein. In general terms: An ELISA detects its analyte on a solid surface through an enzyme-linked reagent.

In patent publication US20230078601A1 (CLEVELAND CLINIC FOUNDATION, published 2023) one finds binding data, which are given here for one molecule.

No constants are given. Whether binding was seen depends on the method and setting. Some binding calls cover weakened binding; strength is not graded here. Where a sequence is shown, tags or fusion partners need not be part of it.

B1: recombinant extracellular domain of human AMHR2 (rhAMHR2-ED), C-terminal hexahistidine-tagged fusion protein (receptor)
chain: PPNRRTCVFFEAPGVRGSTKTLGELLDTGTELPRAIRCLYSRCCFGIWNLTQDRAQVEMQGCRDSDEPGCESLHCDPSPRAHPSPGSTLFTCSCGTDFCNANYSHLPPPGSPGTPGSQGPQAAPGESIWMALHHHHHH
For B1, the binding result is on record as “binds”.
